Several values for one entry are separate records, joined by “and”; a condition that tells them apart may be missing. Identical values can stand only once. This is one part of the list. Repeats are few or missing, and single values can be far off.
Test system: MEPP (mouse ovarian epithelium Trp53/Pten KO)
Assay: cell viability relative to untreated (fraction); higher = less growth inhibition
Conditions: 5 µM; 3 days

Compound	cell viability
CC(=O)c1c(O)cc(O)cc1O	0.802
O=C(O)CCCCCCCCCCCCCCC(=O)O	1.35
O=c1cc(-c2ccc(O[C@@H]3O[C@H](CO)[C@@H](O)[C@H](O)[C@H]3O)cc2)oc2cc(O)c([C@@H]3O[C@H](CO)[C@@H](O)[C@H](O)[C@H]3O[C@@H]3OC[C@H](O)[C@H](O)[C@H]3O)c(O)c12	1.03
CCN(CC)CC#CCOC(=O)C(O)(c1ccccc1)C1CCCCC1 (centres undefined)	1.07
OCCc1ccc(O)c(O)c1	0.982
N=C(NCCCCCCNC(=N)NC(=N)Nc1ccc(Cl)cc1)NC(=N)Nc1ccc(Cl)cc1	0.909
CC(C)(C)[C@H]1CC[C@H](CC2=C(O)C(=O)c3ccccc3C2=O)CC1	0.887
CCn1cc(C(=O)O)c(=O)c2cc(F)c(N3CCNCC3)nc21	0.956
Nc1ncnc2c1ncn2[C@@H]1O[C@H](CO)[C@@H](O)[C@@H]1O	0.837 and 0.886
CC(C)C[C@H](NP(=O)(O)O[C@@H]1O[C@@H](C)[C@H](O)[C@@H](O)[C@H]1O)C(=O)N[C@@H](Cc1c[nH]c2ccccc12)C(=O)O	0.907
O=[N+]([O-])c1ccc(O)cc1	1.07
CSC[C@H](N)C(=O)O	0.888
CCCSc1ccc2[nH]c(NC(=O)OC)nc2c1	0.665
CN(C)c1ccc(O)c2c1C[C@H]1C[C@H]3[C@H](N(C)C)C(O)=C(C(N)=O)C(=O)[C@@]3(O)C(O)=C1C2=O	0.853
Oc1ccc2ccccc2c1	1.58
C[C@@H]1O[C@@H](OC[C@H]2O[C@@H](OCCc3ccc(O)c(O)c3)[C@H](O)[C@@H](O)[C@@H]2OC(=O)/C=C/c2ccc(O)c(O)c2)[C@H](O)[C@H](O)[C@H]1O	1.09
COc1ccc2ccc(=O)oc2c1CC=C(C)C	0.982
CC1(C)C2CCC1(C)C(O)C2 (centres undefined)	1.16
COc1ccc2cc1Oc1ccc(cc1)C[C@H]1c3c(cc4c(c3Oc3cc5c(cc3OC)CCN(C)[C@@H]5C2)OCO4)CCN1C	0.788
O=c1c(-c2ccc(O)cc2)coc2cc(O[C@@H]3O[C@H](CO)[C@@H](O)[C@H](O)[C@H]3O)ccc12	0.896

Compound	cell viability
COc1ccc([C@@H]2CC(=O)c3c(O)cc(O[C@@H]4O[C@H](CO)[C@@H](O)[C@H](O)[C@H]4O[C@@H]4O[C@@H](C)[C@H](O)[C@@H](O)[C@H]4O)cc3O2)cc1O	1.38
O=C1c2c(O)cccc2C([C@@H]2O[C@H](CO)[C@@H](O)[C@H](O)[C@H]2O)c2cc(CO)cc(O)c21 (some centres undefined)	1.01
COC(=O)C1=CO[C@@H](O[C@@H]2O[C@H](CO)[C@@H](O)[C@H](O)[C@H]2O)[C@@H]2C(CO)=CC[C@H]12	1.77
COC(=O)Nc1nc2cc(C(=O)c3cccs3)ccc2[nH]1	0.675
NC(=O)N1c2ccccc2CC(=O)c2ccccc21	0.85
CCc1c(Cl)c(O)c(Cl)c(O)c1C(=O)O[C@H]1[C@H](O)[C@H](OC)[C@H](OC/C2=C\C=C\C[C@H](O)/C(C)=C/[C@H](CC)[C@@H](O[C@@H]3OC(C)(C)[C@@H](OC(=O)C(C)C)[C@H](O)[C@@H]3O)/C(C)=C/C(C)=C/C[C@@H]([C@@H](C)O)OC2=O)O[C@@H]1C	1.11
OC(Cn1cncn1)(Cn1cncn1)c1ccc(F)cc1F	0.93
CC1CCC2(O)C(C)(C)C3CCC2(C)C1C3 (centres undefined)	0.993
CCCCCCCCC(=O)O	1.08
Cn1c(=O)c2c(ncn2C)n(C)c1=O	1.02
O=c1c(-c2ccc(O[C@@H]3O[C@H](CO)[C@@H](O)[C@H](O)[C@H]3O)cc2)coc2cc(O)cc(O)c12	0.959
CC1(C)CCC[C@](C)([C@H]2CC[C@]3(C)[C@@H]2[C@H](O)C[C@@H]2[C@@]4(C)CC[C@H](O)C(C)(C)[C@@H]4[C@H](O)C[C@]23C)O1	0.997
C[C@H]1[C@@H](O)O[C@@H]2O[C@@]3(C)CC[C@H]4[C@H](C)CC[C@@H]1[C@@]24OO3	0.899
COC(=O)[C@@H]1[C@H]2C[C@H]3c4[nH]c5ccccc5c4CCN3C[C@@H]2CC[C@@H]1O	1.19
COC(=O)c1ccc(O)cc1	1.07
C[C@H]1[C@H](C)CC[C@]2(C(=O)O)CC[C@]3(C)C(=CC[C@@H]4[C@@]5(C)C[C@@H](O)[C@H](O)[C@@](C)(CO)[C@@H]5CC[C@]43C)[C@H]12	2.19
CCCCCCCCCCCCCCCC(=O)OC	1.2
C[C@@H]1[C@H](O)[C@@H](C)/C=C/C=C/C=C/C=C/C=C/C=C/C=C/[C@H](O[C@@H]2O[C@H](C)[C@@H](O)[C@H](N)[C@@H]2O)C[C@@H]2O[C@](O)(C[C@@H](O)C[C@@H](O)[C@H](O)CC[C@@H](O)C[C@@H](O)CC(=O)O[C@H]1C)C[C@H](O)[C@H]2C(=O)O	1.1
NCC(=O)CCC(=O)O	1.05
